The chains behind the UniProt entries cited, without tags or fusion partners. Where a name states a change or a piece, a line headed by the entry shows the natural chain unless it says otherwise.
UniProt A0A221LEJ6: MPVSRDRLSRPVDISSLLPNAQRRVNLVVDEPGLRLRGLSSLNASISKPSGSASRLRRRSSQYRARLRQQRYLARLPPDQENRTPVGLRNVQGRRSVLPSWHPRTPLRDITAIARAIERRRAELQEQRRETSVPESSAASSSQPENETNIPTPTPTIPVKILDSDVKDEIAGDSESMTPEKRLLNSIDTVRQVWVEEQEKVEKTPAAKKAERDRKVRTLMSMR

According to PMC9128087:

Key:
[1] = target: DcRAD51D, pGBKT7-DcRAD51D (carnation (Dianthus caryophyllus)); experiment: two-hybrid; pGBKT7 bait and pGADT7 prey cotransformed into Y2HGold yeast; growth on SD-Trp-Leu-His-Ade/X-α-Gal/AbA (QDO/X/A) at 30 °C for 3–5 days; blue colonies
[2] = target: Dianthus caryophyllus parallel spindle 1 (DcPS1), DcPS1-YFP^N (carnation (Dianthus caryophyllus)); experiment: split reporter; BiFC: YFP^N and YFP^C fusions co-expressed by Agrobacterium GV3101 injection into young N. benthamiana leaves; 2 days in weak light; confocal microscopy

Row | Substance | binding [1] | binding [2]
1 | omission of second division like a (OSDLa), pGADT7-OSDLa (from UniProt A0A221LEJ6) | binds | –
2 | OSDLa-YFP^C (from UniProt A0A221LEJ6) | – | binds

Results are given in words; binding and its absence hold for the method and conditions named. Binding can be weak; no strength is given. For some assays here: In cells and extracts the contact can be indirect.
